Results published in US20120101257A1, “PROCESSES FOR PREPARING AMINO-SUBSTITUTED GAMMA-LACTAMS” (UNIVERSITE DE MONTREAL, priority 2009, published 2012).
Some of these results come from one statement about several compounds together. Some compounds share one range, which may span the group rather than tell each member. Where a SMILES comes first, the peptide text is derived from it. [ ]: non-standard residue; d: D form. The star is where a group is joined. X1 = NCCCC[C@@H](C(N)=O)N1C[C@@H](N*)CC1=O; X2 = NCCCC[C@@H](C(N)=O)N1CC[C@H](N*)C1=O

Protein sequences, listed by entry. Tags and fused reporters are not part of them.
UniProt Q92847, whole entry: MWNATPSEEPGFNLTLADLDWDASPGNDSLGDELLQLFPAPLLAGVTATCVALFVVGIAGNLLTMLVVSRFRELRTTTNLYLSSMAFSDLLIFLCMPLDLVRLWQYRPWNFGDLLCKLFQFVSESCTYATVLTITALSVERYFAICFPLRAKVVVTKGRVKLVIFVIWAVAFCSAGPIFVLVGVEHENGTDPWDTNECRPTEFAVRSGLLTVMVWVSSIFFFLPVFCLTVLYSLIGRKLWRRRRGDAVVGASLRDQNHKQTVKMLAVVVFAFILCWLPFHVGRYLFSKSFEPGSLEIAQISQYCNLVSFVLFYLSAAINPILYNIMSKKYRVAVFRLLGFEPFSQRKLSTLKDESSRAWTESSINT

These molecules were tested against T1, GHS-R1a receptor (Homo sapiens, UniProt Q92847) (assay: GHS-R1a receptor competitive binding assay with 125I-Ghrelin). Conditions: factor of decrease compared to GHRP-6.
T1 construct: expressed in transfected cells; host or cells: LLC-PK1 cells, transient calcium phosphate transfection, membrane preparation
Description: Transfection LLC-PK1 cells were seeded at 1.5×10^6 cells/10 cm Petri-dishes and grown for 24 h in DMEM high-glucose (4.5 g/L) with 10% foetal bovine serum supplemented with penicillin (10,000 Units/ml) and streptomycin (10,000 ug/ml), and cultured at 37° C., with 5% CO2. The medium was then replaced for another 4-5 hours before CaPO4 calcium phosphate transfection. The DNA solution consists of 40 μg of DNA in a volume of 500 μl in which was added 500 μl of 2 mM Tris-HCl pH 8.0, 0.2 mM EDTA pH 8.0 containing 500 mM CaCl2, to a final volume of 1 ml. Then 1 ml of 50 mM Hepes, 280 mM NaCl, 1.5 mM Na2HPO4 pH to 7.1 (HBSS) was added by alterning 1 drop/2 air bubbles. The transfection mix reaction was incubated at RT for 30 min. After the incubation period, 1 ml of the mix was added to each plate and distributed evenly for incubation. The media was replaced with standard DMEM-high glucose media for another 24 h and cells were collected for membrane preparation.
Membrane preparation The experiment was carried out 4° C. unless specified. Cells were washed 2 times with PBS and with the homogenization buffer (HB) consisting of 50 mM Tris, 5 mM MgCl2, 2.5 mM EDTA, 30 ug/ml bacitracin at pH 7.3 and were scraped in Eppendorf tubes. Cells were lysed with 2 cycles of freeze/thawing using liquid nitrogen and were then centrifuged at 4° C. for 20 min at 10,000 g to collect the membranes. The membranes were re-suspended in a small volume of HB and aliquoted for storage at −80° C.
The non-specific binding was determined by excess of competitive ligand at 10^−5M. The reaction was carried out at RT for 1 h.

Loss of GHS-R1a binding affinity, factor relative to GHRP-6, 10^3-10^4:
C[C@H](NC(=O)[C@@H](Cc1c[nH]c2ccccc12)NC(=O)[C@@H](N)Cc1c[nH]cn1)C(=O)N[C@@H](Cc1c[nH]c2ccccc12)C(=O)N[C@H]1CC(=O)N([C@@H](CCCCN)C(N)=O)C1 [Compound 53, His-D-Trp-Ala-Trp-(S)-Bgl-Lys-NH2] (H-H[dW]AW-X1)
C[C@H](NC(=O)[C@@H](Cc1c[nH]c2ccccc12)NC(=O)[C@@H](N)Cc1c[nH]cn1)C(=O)N[C@@H](Cc1c[nH]c2ccccc12)C(=O)N[C@H]1CCN([C@@H](CCCCN)C(N)=O)C1=O [Compound 48, His-D-Trp-Ala-Trp-(S)-Agl-Lys-NH2] (H-H[dW]AW-X2)
C[C@@H](C(=O)N[C@@H](Cc1c[nH]c2ccccc12)C(=O)N[C@H](Cc1ccccc1)C(=O)N[C@@H](CCCCN)C(N)=O)N1CC[C@H](NC(=O)[C@@H](N)Cc2c[nH]cn2)C1=O [Compound 45, His-(S)-Agl-Ala-Trp-D-Phe-Lys-NH2]
